Test [1] concerns the target Uso1 N-terminal globular head region (Uso1^GHR), residues 1-726 (Saccharomyces cerevisiae) (UniProt P25386). Description: SEC-MALS; Superdex 200 10/300 GL, 20 mM Tris-HCl pH 8.0, 200 mM NaCl, 5 mM beta-mercaptoethanol; 1 mg protein injected, 0.4 mL/min; both purified. Background: Size exclusion chromatography separates by hydrodynamic size, large species first.
Test [2] shares this target. Description: crystal structure; two crystal forms (Uso1_open 2.7 A, Uso1_closed 2.94 A), space group P3(1)21, one molecule in the asymmetric unit; both purified.
Test [3] has the same target. Description: SEC; analytical gel filtration, Superdex 200 10/300 GL, 20 mM Tris-HCl pH 8.0, 200 mM NaCl, 5 mM beta-mercaptoethanol, 0.5 mL/min; low concentration (1 mg/mL); both purified.
Test [4] shares this target. The test is described as follows: SEC; analytical gel filtration, Superdex 200 10/300 GL, 20 mM Tris-HCl pH 8.0, 200 mM NaCl, 5 mM beta-mercaptoethanol, 0.5 mL/min; high concentration (10 mg/mL); both purified.

No constants are given. Whether binding was seen depends on the method and setting.

B1: Uso1 N-terminal globular head region (Uso1^GHR), residues 1-726 (domain or fragment, UniProt P25386 1-726)
chain: MDIIQGLIQQPKIQSVDETIPTLCDRVENSTLISDRRSAVLGLKAFSRQYRESVIASGLKPLLNTLKRDYMDEDSVKAILETILILFIRGDGHDDLTRGWISQQSRLQNGKYPSPLVMKQEKEQVDQFSLWIADALTQSEDLIHLLVEFWEIDNFHIRLYTIQLLEAVMATRPLKARSALISLPTSISTMVSLLDDMHEPIRDEAILLLMAVVNDSPHVQKLVAFENIFERLFSIIEEEGGLRGSLVVNDCLSLINNILKYNTSNQTLFLETGNLPKLAHLLSEPISQDEVFFWNDQRIVNINTALDIVSLTVEPGNTVTTKHQNALLDSSVLMVVLRLAFFHNIPKKVRPVALLTAANMVRSNEHAQLEFSKIDVPYFDPSLPVNSTANGGPIKLIPVVSILINWMLYANSVHTFDTRVACSRLLKAYFMDNFDLQRDFLLKQVQLCNNSTNNVGDNAKENGGSNKSDKESDSDKDTDGKDGTEYEGSFKANLFEVLLNYDAELNLNPFKLFFTTDIFMFFFQQDHKYSEELREITRNVTTGNDLEDEEPLKAIQTISELLTTSLTAADIRIPISYLTFLIYWLFGDFKATNDFLSDKSVIKSLLSFSYQIQDEDVTIKCLVTMLLGVAYEFSSKESPFPRKEYFEFITKTLGKDNYASRIKQFKKDSYFSKVDMNEDSILTPELDETGLPKVYFSTYFIQLFNENIYRIRTALSHDPDEEPINK
With B1, the binding result in test [1] was “no binding (tested: 1 mg injected)”; in test [2] it was “no binding”; in test [3], “no binding (tested: 1 mg/mL)”; in test [4], “no binding (tested: 10 mg/mL)”.

These data come from PMC7293329.
